Where a chain is given by its changes, count along the chain named. The exact form of at least one protein or probe is not confirmed. For part of these data: The comparison behind a weaker result is the experiment's own reference, which may not be listed here. Protein sequences can lack the tags named with them.
Tests used:
Assay in all cases: fluorescence polarization
[1] = test system: T1, FOXM1B DBD WT (GST fusion); conditions: Kd could not be determined; FP: 50 mM Tris-HCl pH 7.5, 5 mM MgCl2, 1 mM DTT, 2% glycerol; protein 80 nM-5 uM; temperature not stated; recombinant protein; protein details: GST; label: 5' 6FAM on top strand
T1 sequence (looked up, limits assumed): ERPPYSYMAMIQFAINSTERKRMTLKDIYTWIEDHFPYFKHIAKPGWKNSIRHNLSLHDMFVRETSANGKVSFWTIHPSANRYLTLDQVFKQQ

[2] = molecular target: T2, FOXM1 DBD N283A/H287A (UniProt Q08050); conditions: binding did not reach saturation; FP: 50 mM Tris-HCl pH 7.5, 5 mM MgCl2, 1 mM DTT, 2% glycerol; protein 80 nM-5 uM; temperature not stated; recombinant protein; protein details: GST; label: 5' 6FAM on top strand
T2 sequence (looked up, limits assumed): T1 sequence (looked up, limits assumed) with N49A, H53A, Q92P, Q93L

[3] = molecular target: T3, FOXM1 DBD N283A (UniProt Q08050); conditions: binding did not reach saturation; FP: 50 mM Tris-HCl pH 7.5, 5 mM MgCl2, 1 mM DTT, 2% glycerol; protein 80 nM-5 uM; temperature not stated; recombinant protein; protein details: GST; label: 5' 6FAM on top strand
T3 sequence (looked up, limits assumed): T1 sequence (looked up, limits assumed) with N49A, Q92P, Q93L

## TCGGGAGCATGAGTGC (double strand) [PLK1 16-mer]
[1]
  binding result: binds more weakly

## AAACAAACAAACAATC (double strand) [FKH consensus 16-mer]
[2]
  Kd: > 5 µM
[3]
  Kd: > 5 µM

Reference: article PMC4492089, “FOXM1 binds directly to non-consensus sequences in the human genome”
